Earlier results in patent US11291640B2, “Endoxifen for the treatment of bipolar I disorder” (Jina Pharmaceuticals, Inc., priority 2020, dated 2022).
At least one compound was matched to its structure with a doubt left.

System: individuals with bipolar disorder
Details: cited from earlier work

**Q.** With `[Li]` [lithium] as the compound, how does the “population attributable fraction: suicide related events that could have been avoided if taken during the entire study” value (estimate) read?
**A.** The value was 12%.

**Q.** And the “decrease of incidence rate of suicide-related events during treatment” value (treated periods compared with untreated periods, followed from 2005 to 2013)?
**A.** The value was 14%.
